Results deposited as PubChem BioAssay AID1259254 (NCATS, 2017)
This is one part, drawn at random, of about 59,000 reagents. Over the whole deposit, about 1,550 (2.6%) got an active call. 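G2 share is only a proxy for re-replication; each gene was hit by three separate siRNAs, and active genes were retested.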 The numbers tell different reagents against one gene apart. Further read-outs or replicates are left out here. Not given: the amount of reagent.

Screen: 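Genome-wide screen for genes that prevent DNA re-replication in cancer cells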 (primary screen)
Cells: human HCT116 colorectal cancer cells
Reagents: single siRNA against human genes
Timing: 3 days
Detection: 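Imaged Hoechst DNA stain sorts each cell into a cycle phase by DNA amount; per plate, G2 fraction set to 0% for non-targeting and 100% for GMNN siRNA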
Direction: G2 robust z-score: higher = more G2 cells, more excess DNA replication
Active means: 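An siRNA counts as active if its G2 robust z-score lies at least 5 MADs above the screen median; here such calls match roughly 38% of GMNN control or more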

OR52A4P (olfactory receptor family 52 subfamily A member 4 pseudogene) #1
- G2 robust z-score: 0.621
- Outcome: inactive

OR52A4P (olfactory receptor family 52 subfamily A member 4 pseudogene) #2
- G2 robust z-score: 0.325
- Outcome: inactive

OR52A4P (olfactory receptor family 52 subfamily A member 4 pseudogene) #3
- G2 robust z-score: -0.517
- Outcome: inactive

TMEM101 (transmembrane protein 101) #1
- G2 robust z-score: 0.333
- Outcome: inactive

TMEM101 (transmembrane protein 101) #2
- G2 robust z-score: 2.54
- Outcome: inactive

TMEM101 (transmembrane protein 101) #3
- G2 robust z-score: 2.92
- Outcome: inactive

UROS (uroporphyrinogen III synthase) #1
- G2 robust z-score: -1.25
- Outcome: inactive

UROS (uroporphyrinogen III synthase) #2
- G2 robust z-score: 0.8
- Outcome: inactive

UROS (uroporphyrinogen III synthase) #3
- G2 robust z-score: -0.942
- Outcome: inactive

MORN2 (MORN repeat containing 2) #1
- G2 robust z-score: 1.24
- Outcome: inactive

MORN2 (MORN repeat containing 2) #2
- G2 robust z-score: 4.11
- Outcome: inactive

MORN2 (MORN repeat containing 2) #3
- G2 robust z-score: 0.419
- Outcome: inactive

RRM2B #1
- G2 robust z-score: -0.347
- Outcome: inactive

RRM2B #2
- G2 robust z-score: -0.671
- Outcome: inactive

RRM2B #3
- G2 robust z-score: 0.124
- Outcome: inactive

Next part, starting with the last 4 of the part before.
MORN2 (MORN repeat containing 2) #3
- G2 robust z-score: 0.419
- Outcome: inactive

RRM2B #1
- G2 robust z-score: -0.347
- Outcome: inactive

RRM2B #2
- G2 robust z-score: -0.671
- Outcome: inactive

RRM2B #3
- G2 robust z-score: 0.124
- Outcome: inactive

MAFF (MAF bZIP transcription factor F) #1
- G2 robust z-score: -0.742
- Outcome: inactive

MAFF (MAF bZIP transcription factor F) #2
- G2 robust z-score: -1.13
- Outcome: inactive

MAFF (MAF bZIP transcription factor F) #3
- G2 robust z-score: -0.344
- Outcome: inactive

ZNF224 (zinc finger protein 224) #1
- G2 robust z-score: -0.87
- Outcome: inactive

ZNF224 (zinc finger protein 224) #2
- G2 robust z-score: -0.748
- Outcome: inactive

ZNF224 (zinc finger protein 224) #3
- G2 robust z-score: 0.0505
- Outcome: inactive

MSC (musculin) #1
- G2 robust z-score: -1.54
- Outcome: inactive

MSC (musculin) #2
- G2 robust z-score: -1.17
- Outcome: inactive

MSC (musculin) #3
- G2 robust z-score: 1.13
- Outcome: inactive

UBE2U (ubiquitin conjugating enzyme E2 U) #1
- G2 robust z-score: 1.25
- Outcome: inactive

UBE2U (ubiquitin conjugating enzyme E2 U) #2
- G2 robust z-score: -0.582
- Outcome: inactive

UBE2U (ubiquitin conjugating enzyme E2 U) #3
- G2 robust z-score: 0.544
- Outcome: inactive

SSX1 (SSX family member 1) #1
- G2 robust z-score: -0.129
- Outcome: inactive

SSX1 (SSX family member 1) #2
- G2 robust z-score: 0.294
- Outcome: inactive

SSX1 (SSX family member 1) #3
- G2 robust z-score: 4.75
- Outcome: inactive
